The supplement of paper PMC7661543
± gives the standard deviation of the averaged measurements. Differences between knockout arms are mostly noise.

System: HCC-38
Assay: relative cell number vs DMSO control (72 h) (% of DMSO); higher = less growth inhibition (more cells)
Procedure: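 QMAP-Seq: a pool of 5 breast cancer cell lines (ZR-75-1, SKBR3, HCC-38, MDA-MB-231, BT-20), each carrying 12 doxycycline-inducible Cas9 sgRNA perturbations (11 knockouts plus non-targeting sgNT), was treated with compounds for 72 h at four 10-fold doses (10 nM-10 uM or 1 nM-1 uM range). Barcodes were amplified and sequenced, and cell number was interpolated from 293T spike-in standard curves. The result is expressed as % of the median of DMSO wells. Two biological replicates.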

O=c1[nH]cc(F)c(=O)[nH]1 [5-Fluorouracil]
Details | relative cell number
sgRNA knockout: sgATF3, 10 nM | 93.2 ± 0.94
sgRNA knockout: sgATF3, 100 nM | 112 ± 8.4
sgRNA knockout: sgATF3, 1000 nM | 97.8 ± 6.8
sgRNA knockout: sgATF3, 10000 nM | 67 ± 9.2
sgRNA knockout: sgATF4, 10 nM | 97.3 ± 5.8
sgRNA knockout: sgATF4, 100 nM | 110 ± 9.8
sgRNA knockout: sgATF4, 1000 nM | 107 ± 13
sgRNA knockout: sgATF4, 10000 nM | 68.2 ± 14
sgRNA knockout: sgATF6, 10 nM | 100 ± 13
sgRNA knockout: sgATF6, 100 nM | 116 ± 27
sgRNA knockout: sgATF6, 1000 nM | 114.4 ± 0.25
sgRNA knockout: sgATF6, 10000 nM | 69.6 ± 1.6
sgRNA knockout: sgATG7, 10 nM | 97.8 ± 1.1
sgRNA knockout: sgATG7, 100 nM | 103 ± 12
sgRNA knockout: sgATG7, 1000 nM | 110 ± 15
sgRNA knockout: sgATG7, 10000 nM | 68.2 ± 6.5
sgRNA knockout: sgERN1, 10 nM | 91.6 ± 1.5
sgRNA knockout: sgERN1, 100 nM | 116 ± 11
sgRNA knockout: sgERN1, 1000 nM | 95.7 ± 18
sgRNA knockout: sgERN1, 10000 nM | 61.2 ± 9.8
sgRNA knockout: sgHSF1, 10 nM | 97.8 ± 1.1
sgRNA knockout: sgHSF1, 100 nM | 93.2 ± 34
sgRNA knockout: sgHSF1, 1000 nM | 102 ± 6.9
sgRNA knockout: sgHSF1, 10000 nM | 71.04 ± 0.14
sgRNA knockout: sgHSF2, 10 nM | 98.1 ± 9.5
sgRNA knockout: sgHSF2, 100 nM | 109 ± 19
sgRNA knockout: sgHSF2, 1000 nM | 112 ± 3
sgRNA knockout: sgHSF2, 10000 nM | 74 ± 4
sgRNA knockout: sgKEAP1, 10 nM | 116 ± 3.1
sgRNA knockout: sgKEAP1, 100 nM | 113 ± 14
sgRNA knockout: sgKEAP1, 1000 nM | 103 ± 6.5
sgRNA knockout: sgKEAP1, 10000 nM | 81 ± 9
sgRNA knockout: sgNFE2L2, 10 nM | 92.5 ± 14
sgRNA knockout: sgNFE2L2, 100 nM | 110 ± 2.9
sgRNA knockout: sgNFE2L2, 1000 nM | 113 ± 26
sgRNA knockout: sgNFE2L2, 10000 nM | 68 ± 7
sgRNA knockout: sgSLC35F2, 10 nM | 91.2 ± 11
sgRNA knockout: sgSLC35F2, 100 nM | 113 ± 20
sgRNA knockout: sgSLC35F2, 1000 nM | 117 ± 18
sgRNA knockout: sgSLC35F2, 10000 nM | 61.2 ± 0.81
sgRNA knockout: sgXBP1, 10 nM | 97.1 ± 14
sgRNA knockout: sgXBP1, 100 nM | 118 ± 12
sgRNA knockout: sgXBP1, 1000 nM | 109 ± 20
sgRNA knockout: sgXBP1, 10000 nM | 69.9 ± 10

O=P1(N(CCCl)CCCl)NCCCO1 (stereo not drawn) [Cyclophosphamide]
Details | relative cell number
sgRNA knockout: sgATF3, 10 nM | 101 ± 5.4
sgRNA knockout: sgATF3, 100 nM | 93.3 ± 1.6
sgRNA knockout: sgATF3, 1000 nM | 102 ± 3.8
sgRNA knockout: sgATF3, 10000 nM | 92.44 ± 0.45
sgRNA knockout: sgATF4, 10 nM | 91.2 ± 4.2
sgRNA knockout: sgATF4, 100 nM | 86.39 ± 0.17
sgRNA knockout: sgATF4, 1000 nM | 106 ± 19
sgRNA knockout: sgATF4, 10000 nM | 95.1 ± 1.9
sgRNA knockout: sgATF6, 10 nM | 102 ± 4.1
sgRNA knockout: sgATF6, 100 nM | 109 ± 16
sgRNA knockout: sgATF6, 1000 nM | 106 ± 7.2
sgRNA knockout: sgATF6, 10000 nM | 106 ± 1.1
sgRNA knockout: sgATG7, 10 nM | 89.9 ± 1.6
sgRNA knockout: sgATG7, 100 nM | 86.9 ± 3.1
sgRNA knockout: sgATG7, 1000 nM | 98.8 ± 13
sgRNA knockout: sgATG7, 10000 nM | 91.8 ± 9.8
sgRNA knockout: sgERN1, 10 nM | 83.9 ± 7.7
sgRNA knockout: sgERN1, 100 nM | 97.4 ± 1.6
sgRNA knockout: sgERN1, 1000 nM | 99 ± 12
sgRNA knockout: sgERN1, 10000 nM | 97.2 ± 8.1
sgRNA knockout: sgHSF1, 10 nM | 86.45 ± 0.84
sgRNA knockout: sgHSF1, 100 nM | 106 ± 18
sgRNA knockout: sgHSF1, 1000 nM | 96.2 ± 16
sgRNA knockout: sgHSF1, 10000 nM | 108 ± 15
sgRNA knockout: sgHSF2, 10 nM | 91 ± 8.8
sgRNA knockout: sgHSF2, 100 nM | 106 ± 10
sgRNA knockout: sgHSF2, 1000 nM | 105 ± 15
sgRNA knockout: sgHSF2, 10000 nM | 96.8 ± 21
sgRNA knockout: sgKEAP1, 10 nM | 92.7 ± 11
sgRNA knockout: sgKEAP1, 100 nM | 100 ± 26
sgRNA knockout: sgKEAP1, 1000 nM | 122 ± 15
sgRNA knockout: sgKEAP1, 10000 nM | 114 ± 24
sgRNA knockout: sgNFE2L2, 10 nM | 88.2 ± 7.3
sgRNA knockout: sgNFE2L2, 100 nM | 85.8 ± 0.99
sgRNA knockout: sgNFE2L2, 1000 nM | 106 ± 32
sgRNA knockout: sgNFE2L2, 10000 nM | 96.4 ± 9.7
sgRNA knockout: sgSLC35F2, 10 nM | 83 ± 13
sgRNA knockout: sgSLC35F2, 100 nM | 94.2 ± 2
sgRNA knockout: sgSLC35F2, 1000 nM | 102 ± 1.3
sgRNA knockout: sgSLC35F2, 10000 nM | 98.7 ± 14
sgRNA knockout: sgXBP1, 10 nM | 93.8 ± 12
sgRNA knockout: sgXBP1, 100 nM | 89.7 ± 2.9
sgRNA knockout: sgXBP1, 1000 nM | 105 ± 21
sgRNA knockout: sgXBP1, 10000 nM | 101 ± 5.5
